The supplement of paper PMC4604168 (melanoma cell lines)
Some of the results follow. Single values are uncertain, as repeats are few or missing.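 Imaging used 1,536-well plates; nuclei positive for cleaved PARP by antibody were divided by total DNA-stained nuclei to yield the apoptosis fraction. Doses for screening kept most cells viable, and cell lines differ markedly in resting and induced cleaved-PARP levels.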

Key:
Assay in all cases: cleaved PARP positive nuclei fraction relative to DMSO control; melanoma cells; higher = more apoptosis
Details in all cases: library dose: low library concentration; 72 h
501Mel = tested on: 501Mel
A101D = tested on: A101D
A2058 = tested on: A2058
A375 = tested on: A375
C32 = tested on: C32
CBRC008 = tested on: CBRC008 (line from a melanoma biopsy)
CBRC014 = tested on: CBRC014 (line from a melanoma biopsy)
CBRC016 = tested on: CBRC016 (line from a melanoma biopsy)
CBRC017 = tested on: CBRC017 (line from a melanoma biopsy)
CBRC034 = tested on: CBRC034 (line from a melanoma biopsy)
COLO792 = tested on: COLO792
COLO800 = tested on: COLO800
COLO829 = tested on: COLO829
G361 = tested on: G361
IPC-298 = tested on: IPC-298
IST-MEL1 = tested on: IST-MEL1
LB2518-MEL = tested on: LB2518-MEL
LOXIMVI = tested on: LOXIMVI
MEL-HO = tested on: MEL-HO

SMILES	cleaved PARP positive nuclei fraction (501Mel) [%]	cleaved PARP positive nuclei fraction (A101D) [%]	cleaved PARP positive nuclei fraction (A2058) [%]	cleaved PARP positive nuclei fraction (A375) [%]	cleaved PARP positive nuclei fraction (C32) [%]	cleaved PARP positive nuclei fraction (CBRC008) [%]	cleaved PARP positive nuclei fraction (CBRC014) [%]	cleaved PARP positive nuclei fraction (CBRC016) [%]	cleaved PARP positive nuclei fraction (CBRC017) [%]	cleaved PARP positive nuclei fraction (CBRC034) [%]	cleaved PARP positive nuclei fraction (COLO792) [%]	cleaved PARP positive nuclei fraction (COLO800) [%]	cleaved PARP positive nuclei fraction (COLO829) [%]	cleaved PARP positive nuclei fraction (G361) [%]	cleaved PARP positive nuclei fraction (IPC-298) [%]	cleaved PARP positive nuclei fraction (IST-MEL1) [%]	cleaved PARP positive nuclei fraction (LB2518-MEL) [%]	cleaved PARP positive nuclei fraction (LOXIMVI) [%]	cleaved PARP positive nuclei fraction (MEL-HO) [%]
Cc1cc(Nc2cc(N3CCN(C)CC3)nc(Sc3ccc(NC(=O)C4CC4)cc3)n2)n[nH]1 [Tozasertib] + Cc1ccc(Nc2nccc(N(C)c3ccc4c(C)n(C)nc4c3)n2)cc1S(N)(=O)=O [Pazopanib] (first compound 0.006 µM, partner dose 0.4 µM)	66.4	43.4	110	222	75.1	113	110	157	109	71.6	65	134	128	138	148	173	106	133	54.6
Cc1cn(-c2cc(NC(=O)c3ccc(C)c(Nc4nccc(-c5cccnc5)n4)c3)cc(C(F)(F)F)c2)cn1 [nilotinib] + O=C(O)c1ccc2c(c1)nc(Nc1cccc(Cl)c1)c1ccncc12 [CX4945] (first compound 0.2 µM, partner dose 0.4 µM)	81.8	264	155	56.8	270	179	110	109	162	177	79.5	51.2	136	145	92.5	121	96.2	56.4	190
N#CC[C@H](C1CCCC1)n1cc(-c2ncnc3[nH]ccc23)cn1 [ruxolitinib] + Clc1ccc(Nc2nnc(Cc3ccncc3)c3ccccc23)cc1 [vatalanib] (first compound 1 µM, partner dose 2 µM)	104	90.5	71.8	220	80.1	145	126	307	141	51	71.7	44.6	76.9	61.4	89.2	32.9	38.3	77.7	86.6
O=C(/C=C/c1cccnc1)NCCCCC1CCN(C(=O)c2ccccc2)CC1 + Cc1nc(Nc2ncc(C(=O)Nc3c(C)cccc3Cl)s2)cc(N2CCN(CCO)CC2)n1 [dasatanib] (first compound 0.01 µM, partner dose 0.004 µM)	134	88.1	124	118	164	3360	142	922	478	2580	285	553	231	3020	1100	199	96.7	232	280
Cc1ccc(Nc2nccc(N(C)c3ccc4c(C)n(C)nc4c3)n2)cc1S(N)(=O)=O [Pazopanib] + CS(=O)(=O)c1ccc(C(=O)Nc2ccc(Cl)c(-c3ccccn3)c2)c(Cl)c1 [vismodegib] (first compound 0.4 µM, partner dose 1 µM)	90.4	96.2	20.4	251	70.3	107	114	95.1	112	66.8	61.8	121	89.1	59.8	35.2	127	112	84.7	297
COc1cc([C@@H]2c3cc4c(cc3[C@@H](O[C@@H]3O[C@@H]5CO[C@@H](C)O[C@H]5[C@H](O)[C@H]3O)[C@H]3COC(=O)[C@H]23)OCO4)cc(OC)c1O [etoposide] + Clc1ccc(Nc2nnc(Cc3ccncc3)c3ccccc23)cc1 [vatalanib] (first compound 0.02 µM, partner dose 2 µM)	99.9	86.7	198	177	80.2	94.6	86.2	86	243	120	61.4	149	88.8	73.7	56.5	59.9	50.8	171	50.9
O=C(Nc1cc(C(F)(F)F)cc(C(F)(F)F)c1)c1cc(Cl)ccc1O + C=C(c1ccc(C(=O)O)cc1)c1cc2c(cc1C)C(C)(C)CCC2(C)C [Bexarotene] (first compound 0.016 µM, partner dose 2 µM)	141	86.6	138	56.5	78.7	85.8	97.6	160	144	79.2	68.5	102	121	150	60	63.6	96.6	118	81.3
N#CC[C@H](C1CCCC1)n1cc(-c2ncnc3[nH]ccc23)cn1 [ruxolitinib] + CC(C)C[C@H](NC(=O)[C@H](Cc1ccccc1)NC(=O)c1cnccn1)B(O)O [Bortezomib] (first compound 1 µM, partner dose 0.001 µM)	99.3	274	107	71.6	78	362	130	114	137	148	111	50.5	283	234	59.2	64.7	228	82.3	62.4
O=c1[nH]nc(Sc2ncc([N+](=O)[O-])s2)n1-c1ccc2c(c1)OCCO2 + CC(C)C[C@H](NC(=O)[C@H](Cc1ccccc1)NC(=O)c1cnccn1)B(O)O [Bortezomib] (first compound 0.2 µM, partner dose 0.001 µM)	149	255	175	88.7	83.5	127	101	161	111	81.4	91.5	101	44.9	64.6	194	92.7	63.6	64.8	31.8
CC[C@]1(O)C[C@H]2CN(CCc3c([nH]c4ccccc34)[C@@](C(=O)OC)(c3cc4c(cc3OC)N(C=O)[C@H]3[C@@](O)(C(=O)OC)[C@H](OC(C)=O)[C@]5(CC)C=CCN6CC[C@]43[C@@H]65)C2)C1 [vincristine] + C=CCNC1=C2C[C@@H](C)C[C@H](OC)[C@H](O)[C@@H](C)/C=C(\C)[C@H](OC(N)=O)[C@@H](OC)/C=C\C=C(/C)C(=O)NC(=CC1=O)C2=O [Tanespimycin] (first compound 0.0001 µM, partner dose 0.002 µM)	93	74.9	378	139	124	195	104	75	146	74.3	94.2	103	153	146	90.8	95.1	139	124	60.2
COc1cc([C@@H]2c3cc4c(cc3[C@@H](O[C@@H]3O[C@@H]5CO[C@@H](C)O[C@H]5[C@H](O)[C@H]3O)[C@H]3COC(=O)[C@H]23)OCO4)cc(OC)c1O [etoposide] + C#Cc1cccc(Nc2ncnc3cc(OCCOC)c(OCCOC)cc23)c1 [erlotinib] (first compound 0.02 µM, partner dose 0.8 µM)	136	59.8	38.3	63.8	71.1	105	111	31	134	31.6	136	120	77.5	48.2	50.8	61.9	126	46.4	49.3
CC[C@]1(O)C[C@H]2CN(CCc3c([nH]c4ccccc34)[C@@](C(=O)OC)(c3cc4c(cc3OC)N(C=O)[C@H]3[C@@](O)(C(=O)OC)[C@H](OC(C)=O)[C@]5(CC)C=CCN6CC[C@]43[C@@H]65)C2)C1 [vincristine] + Cc1nc(Nc2ncc(C(=O)Nc3c(C)cccc3Cl)s2)cc(N2CCN(CCO)CC2)n1 [dasatanib] (first compound 0.0001 µM, partner dose 0.004 µM)	116	287	1510	247	199	369	134	45.5	149	95.4	82.7	158	117	147	42.8	77.5	122	180	174
COc1cc([C@@H]2c3cc4c(cc3[C@@H](O[C@@H]3O[C@@H]5CO[C@@H](C)O[C@H]5[C@H](O)[C@H]3O)[C@H]3COC(=O)[C@H]23)OCO4)cc(OC)c1O [etoposide] + CS(=O)(=O)c1ccc(C(=O)Nc2ccc(Cl)c(-c3ccccn3)c2)c(Cl)c1 [vismodegib] (first compound 0.02 µM, partner dose 1 µM)	194	127	81.6	355	74.6	110	88.1	36.4	68.8	48.4	104	109	62	97.1	181	123	92.8	70.2	122
CCCCCCCCCCCCCCCCCCOP(=O)([O-])OC1CC[N+](C)(C)CC1 [Perifosine] + COc1ccc(C2=N[C@@H](c3ccc(Cl)cc3)[C@@H](c3ccc(Cl)cc3)N2C(=O)N2CCNC(=O)C2)c(OC(C)C)c1 [Nutlin-3] (first compound 0.4 µM, partner dose 0.1 µM)	65	66.1	50.3	268	71.7	120	77.1	82	130	171	40.9	89.5	117	113	87.4	177	99.2	168	107

Some of the entries so far, bar-delimited.
SMILES | cleaved PARP positive nuclei fraction (501Mel) [%] | cleaved PARP positive nuclei fraction (A101D) [%] | cleaved PARP positive nuclei fraction (A2058) [%] | cleaved PARP positive nuclei fraction (A375) [%] | cleaved PARP positive nuclei fraction (C32) [%] | cleaved PARP positive nuclei fraction (CBRC008) [%] | cleaved PARP positive nuclei fraction (CBRC014) [%] | cleaved PARP positive nuclei fraction (CBRC016) [%] | cleaved PARP positive nuclei fraction (CBRC017) [%] | cleaved PARP positive nuclei fraction (CBRC034) [%] | cleaved PARP positive nuclei fraction (COLO792) [%] | cleaved PARP positive nuclei fraction (COLO800) [%] | cleaved PARP positive nuclei fraction (COLO829) [%] | cleaved PARP positive nuclei fraction (G361) [%] | cleaved PARP positive nuclei fraction (IPC-298) [%] | cleaved PARP positive nuclei fraction (IST-MEL1) [%] | cleaved PARP positive nuclei fraction (LB2518-MEL) [%] | cleaved PARP positive nuclei fraction (LOXIMVI) [%] | cleaved PARP positive nuclei fraction (MEL-HO) [%]
O=c1[nH]nc(Sc2ncc([N+](=O)[O-])s2)n1-c1ccc2c(c1)OCCO2 + CC(C)C[C@H](NC(=O)[C@H](Cc1ccccc1)NC(=O)c1cnccn1)B(O)O [Bortezomib] (first compound 0.2 µM, partner dose 0.001 µM) | 149 | 255 | 175 | 88.7 | 83.5 | 127 | 101 | 161 | 111 | 81.4 | 91.5 | 101 | 44.9 | 64.6 | 194 | 92.7 | 63.6 | 64.8 | 31.8
CC[C@]1(O)C[C@H]2CN(CCc3c([nH]c4ccccc34)[C@@](C(=O)OC)(c3cc4c(cc3OC)N(C=O)[C@H]3[C@@](O)(C(=O)OC)[C@H](OC(C)=O)[C@]5(CC)C=CCN6CC[C@]43[C@@H]65)C2)C1 [vincristine] + C=CCNC1=C2C[C@@H](C)C[C@H](OC)[C@H](O)[C@@H](C)/C=C(\C)[C@H](OC(N)=O)[C@@H](OC)/C=C\C=C(/C)C(=O)NC(=CC1=O)C2=O [Tanespimycin] (first compound 0.0001 µM, partner dose 0.002 µM) | 93 | 74.9 | 378 | 139 | 124 | 195 | 104 | 75 | 146 | 74.3 | 94.2 | 103 | 153 | 146 | 90.8 | 95.1 | 139 | 124 | 60.2
